PubChem BioAssay AID1671195 | Yale University – 2021
This is an unselected part of about 22,000 reagents tested. Over the whole deposit, about 1,510 (6.9%) are marked active. 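Active includes knockdowns raising or lowering LDL uptake; positive z-scores mean more uptake, negative mean less.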 A number with no mark means an inactive call.

Test: 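Regulators of LDL receptor activity judged by labelled LDL uptake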 (primary screen)
Cell system: human Huh7 hepatoma cells
Knock-down reagent: siRNA pool against human genes, 18 nM
Time to read-out: about 2 to 2.5 days of knockdown, then 8 h LDL uptake
Conditions: DiI-labelled LDL at 30 µg/ml for 8 h, in lipoprotein-deficient serum medium
Measurement: 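Per-cell DiI-LDL intensity by automated imaging; well means scaled to the plate median and given as a robust z-score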
Direction: robust z-score: higher = more LDL uptake after knockdown
Rule for the call: 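a gene counts as active if at least two replicate z-scores exceed ±2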

P2RX6 (GeneID 9127) → robust z-score, replicate 1: 0.456; robust z-score, replicate 2: 0.162; robust z-score, replicate 3: 0.302
HPGD (GeneID 3248) → robust z-score, replicate 1: -0.582; robust z-score, replicate 2: -0.134; robust z-score, replicate 3: -1.21
TCEA1 (GeneID 6917) → robust z-score, replicate 1: 0.848 (active); robust z-score, replicate 2: 2.69; robust z-score, replicate 3: 1.92
RASA3 (GeneID 22821) → robust z-score, replicate 1: -0.542; robust z-score, replicate 2: -0.655; robust z-score, replicate 3: -0.381
NSUN7 (GeneID 79730) → robust z-score, replicate 1: 0.411; robust z-score, replicate 2: -0.042; robust z-score, replicate 3: -0.118
LOC285444 (retired record) (GeneID 285444) → robust z-score, replicate 1: 0.341; robust z-score, replicate 2: 0.393; robust z-score, replicate 3: 0.525
LALBA (GeneID 3906) → robust z-score, replicate 1: -0.783; robust z-score, replicate 2: -1.61; robust z-score, replicate 3: -1.22
LOC441706 (retired record) (GeneID 441706) → robust z-score, replicate 1: -0.93; robust z-score, replicate 2: -0.991; robust z-score, replicate 3: -0.697
ZMYND15 (GeneID 84225) → robust z-score, replicate 1: -1.31; robust z-score, replicate 2: -0.575; robust z-score, replicate 3: -1.2
INTU (GeneID 27152) → robust z-score, replicate 1: 1.72 (active); robust z-score, replicate 2: 2.29; robust z-score, replicate 3: 2
PP2D1 (GeneID 151649) → robust z-score, replicate 1: -0.415; robust z-score, replicate 2: 0.126; robust z-score, replicate 3: -0.483
STARD8 (GeneID 9754) → robust z-score, replicate 1: 0.738; robust z-score, replicate 2: 1.63; robust z-score, replicate 3: 1.73
MEN1 (GeneID 4221) → robust z-score, replicate 1: 1.1; robust z-score, replicate 2: 0.695; robust z-score, replicate 3: 0.342
TTF2 (GeneID 8458) → robust z-score, replicate 1: 3.03 (active); robust z-score, replicate 2: 4.49; robust z-score, replicate 3: 3.27
ETS2-AS1 (GeneID 400867) → robust z-score, replicate 1: 0.0646; robust z-score, replicate 2: 0.41; robust z-score, replicate 3: 0.183
ANKRD60 (GeneID 140731) → robust z-score, replicate 1: 0.38; robust z-score, replicate 2: 0.517; robust z-score, replicate 3: -0.713
BZW1 (GeneID 9689) → robust z-score, replicate 1: 0.841; robust z-score, replicate 2: 3.37; robust z-score, replicate 3: 0.853
RARA (GeneID 5914) → robust z-score, replicate 1: 1.13; robust z-score, replicate 2: -1.02; robust z-score, replicate 3: -0.0763
HINT1 (GeneID 3094) → robust z-score, replicate 1: 0.722; robust z-score, replicate 2: 0.0862; robust z-score, replicate 3: 0.666
PBK (GeneID 55872) → robust z-score, replicate 1: 0.107; robust z-score, replicate 2: -0.467; robust z-score, replicate 3: -0.0956
DNAJC9 (GeneID 23234) → robust z-score, replicate 1: -0.0302; robust z-score, replicate 2: 0.477; robust z-score, replicate 3: 0.153
ZNF860 (GeneID 344787) → robust z-score, replicate 1: -0.678; robust z-score, replicate 2: -1.02; robust z-score, replicate 3: -0.383
PPP2R1A (GeneID 5518) → robust z-score, replicate 1: -1.77; robust z-score, replicate 2: -1.88; robust z-score, replicate 3: -1.56
PCNX4 (GeneID 64430) → robust z-score, replicate 1: -0.415; robust z-score, replicate 2: -1.73; robust z-score, replicate 3: -0.964

Targets listed so far whose target name begins with R or r (2):
RASA3 (GeneID 22821) → robust z-score, replicate 1: -0.542; robust z-score, replicate 2: -0.655; robust z-score, replicate 3: -0.381
RARA (GeneID 5914) → robust z-score, replicate 1: 1.13; robust z-score, replicate 2: -1.02; robust z-score, replicate 3: -0.0763
